The source of these data is the supplement of paper PMC10849652.

Sequences of proteins named here, by UniProt entry; tags and fusion partners are left off. A change or cut given only in a name is not applied to a line headed by its entry.
UniProt P40926: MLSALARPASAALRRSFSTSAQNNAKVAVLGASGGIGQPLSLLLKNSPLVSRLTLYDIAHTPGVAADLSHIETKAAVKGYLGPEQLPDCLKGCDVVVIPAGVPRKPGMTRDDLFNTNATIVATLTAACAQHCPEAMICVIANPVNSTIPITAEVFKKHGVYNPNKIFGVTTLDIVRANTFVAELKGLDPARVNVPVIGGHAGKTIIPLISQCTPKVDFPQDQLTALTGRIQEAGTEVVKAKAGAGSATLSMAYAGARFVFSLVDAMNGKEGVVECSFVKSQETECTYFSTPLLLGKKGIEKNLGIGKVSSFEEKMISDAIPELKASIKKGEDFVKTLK
UniProt Q6UB28: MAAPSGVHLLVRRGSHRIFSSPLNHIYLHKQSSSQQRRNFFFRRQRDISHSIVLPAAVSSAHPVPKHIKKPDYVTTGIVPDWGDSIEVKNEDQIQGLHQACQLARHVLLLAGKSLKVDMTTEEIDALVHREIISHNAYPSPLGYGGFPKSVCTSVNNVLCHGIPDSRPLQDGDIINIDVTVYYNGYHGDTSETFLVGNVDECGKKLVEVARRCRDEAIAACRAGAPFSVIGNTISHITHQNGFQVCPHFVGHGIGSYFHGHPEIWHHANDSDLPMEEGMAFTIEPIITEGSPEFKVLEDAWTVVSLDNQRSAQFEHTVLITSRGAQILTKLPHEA
UniProt P23368: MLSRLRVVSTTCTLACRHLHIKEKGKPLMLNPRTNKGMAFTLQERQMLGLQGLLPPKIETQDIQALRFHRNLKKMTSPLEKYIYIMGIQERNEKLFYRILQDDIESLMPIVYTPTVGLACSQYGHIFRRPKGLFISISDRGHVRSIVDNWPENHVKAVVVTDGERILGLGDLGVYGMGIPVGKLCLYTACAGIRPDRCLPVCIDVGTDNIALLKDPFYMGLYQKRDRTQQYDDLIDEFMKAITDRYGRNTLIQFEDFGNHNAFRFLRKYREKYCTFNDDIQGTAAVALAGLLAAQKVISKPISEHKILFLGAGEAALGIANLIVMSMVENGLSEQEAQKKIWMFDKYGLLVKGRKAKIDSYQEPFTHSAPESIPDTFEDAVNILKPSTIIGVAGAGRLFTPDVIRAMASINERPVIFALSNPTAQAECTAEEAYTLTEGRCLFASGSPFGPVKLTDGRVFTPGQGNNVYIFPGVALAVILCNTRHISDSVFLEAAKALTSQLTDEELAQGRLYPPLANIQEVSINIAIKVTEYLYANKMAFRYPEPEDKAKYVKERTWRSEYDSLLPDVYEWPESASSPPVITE
UniProt Q96IZ6: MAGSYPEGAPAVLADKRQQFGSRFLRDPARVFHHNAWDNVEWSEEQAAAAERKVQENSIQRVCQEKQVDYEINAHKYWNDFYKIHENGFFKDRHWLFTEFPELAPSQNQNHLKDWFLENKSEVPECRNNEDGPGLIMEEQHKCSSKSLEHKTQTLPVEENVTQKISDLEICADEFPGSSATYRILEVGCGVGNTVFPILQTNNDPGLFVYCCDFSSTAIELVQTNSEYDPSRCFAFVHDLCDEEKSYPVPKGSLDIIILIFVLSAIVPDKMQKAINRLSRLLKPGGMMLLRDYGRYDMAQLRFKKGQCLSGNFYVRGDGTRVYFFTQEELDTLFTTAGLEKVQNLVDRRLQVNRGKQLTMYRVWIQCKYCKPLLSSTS
UniProt O95140: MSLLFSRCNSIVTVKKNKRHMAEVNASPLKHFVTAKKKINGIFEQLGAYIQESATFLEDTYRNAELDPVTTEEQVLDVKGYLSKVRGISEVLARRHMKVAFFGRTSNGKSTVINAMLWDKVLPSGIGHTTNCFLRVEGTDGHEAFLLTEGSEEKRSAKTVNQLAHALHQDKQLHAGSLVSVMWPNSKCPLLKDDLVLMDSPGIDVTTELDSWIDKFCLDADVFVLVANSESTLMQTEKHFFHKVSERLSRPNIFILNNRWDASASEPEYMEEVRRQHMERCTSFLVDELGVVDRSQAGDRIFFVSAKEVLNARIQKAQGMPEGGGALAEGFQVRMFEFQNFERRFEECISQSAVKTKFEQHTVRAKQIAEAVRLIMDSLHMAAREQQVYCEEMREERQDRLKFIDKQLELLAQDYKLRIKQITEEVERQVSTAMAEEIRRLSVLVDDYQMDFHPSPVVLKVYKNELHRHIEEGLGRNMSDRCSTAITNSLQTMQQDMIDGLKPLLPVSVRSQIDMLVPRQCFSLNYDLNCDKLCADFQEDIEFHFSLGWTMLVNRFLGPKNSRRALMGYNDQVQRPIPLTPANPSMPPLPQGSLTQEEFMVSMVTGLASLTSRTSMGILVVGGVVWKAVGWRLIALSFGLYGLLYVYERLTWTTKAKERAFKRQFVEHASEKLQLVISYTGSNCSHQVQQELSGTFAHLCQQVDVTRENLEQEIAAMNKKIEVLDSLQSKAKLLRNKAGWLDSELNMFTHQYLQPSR
UniProt Q96G25: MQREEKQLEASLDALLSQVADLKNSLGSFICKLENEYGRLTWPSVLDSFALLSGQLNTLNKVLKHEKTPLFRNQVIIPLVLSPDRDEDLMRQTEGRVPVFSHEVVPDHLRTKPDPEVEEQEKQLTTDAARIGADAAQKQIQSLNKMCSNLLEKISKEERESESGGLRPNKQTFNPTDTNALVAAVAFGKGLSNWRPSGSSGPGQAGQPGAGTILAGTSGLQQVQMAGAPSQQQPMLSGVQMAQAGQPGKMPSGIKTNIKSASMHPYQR
UniProt Q86W50: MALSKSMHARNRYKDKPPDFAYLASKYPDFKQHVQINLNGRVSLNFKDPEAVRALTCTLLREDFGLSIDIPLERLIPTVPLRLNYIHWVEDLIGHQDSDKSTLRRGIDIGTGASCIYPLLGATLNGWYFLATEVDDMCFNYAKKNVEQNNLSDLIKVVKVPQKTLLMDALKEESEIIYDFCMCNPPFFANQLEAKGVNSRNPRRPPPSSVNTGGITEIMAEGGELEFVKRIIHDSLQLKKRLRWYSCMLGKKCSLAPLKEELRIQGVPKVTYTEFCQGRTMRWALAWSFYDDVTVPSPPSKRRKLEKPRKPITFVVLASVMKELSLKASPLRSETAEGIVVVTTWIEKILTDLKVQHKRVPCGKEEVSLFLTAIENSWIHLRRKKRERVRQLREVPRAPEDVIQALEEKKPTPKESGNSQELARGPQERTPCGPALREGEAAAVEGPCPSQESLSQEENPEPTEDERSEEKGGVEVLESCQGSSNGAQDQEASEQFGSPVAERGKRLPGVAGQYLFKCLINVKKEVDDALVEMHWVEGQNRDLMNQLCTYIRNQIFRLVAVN
UniProt Q06413, whole entry, looked up: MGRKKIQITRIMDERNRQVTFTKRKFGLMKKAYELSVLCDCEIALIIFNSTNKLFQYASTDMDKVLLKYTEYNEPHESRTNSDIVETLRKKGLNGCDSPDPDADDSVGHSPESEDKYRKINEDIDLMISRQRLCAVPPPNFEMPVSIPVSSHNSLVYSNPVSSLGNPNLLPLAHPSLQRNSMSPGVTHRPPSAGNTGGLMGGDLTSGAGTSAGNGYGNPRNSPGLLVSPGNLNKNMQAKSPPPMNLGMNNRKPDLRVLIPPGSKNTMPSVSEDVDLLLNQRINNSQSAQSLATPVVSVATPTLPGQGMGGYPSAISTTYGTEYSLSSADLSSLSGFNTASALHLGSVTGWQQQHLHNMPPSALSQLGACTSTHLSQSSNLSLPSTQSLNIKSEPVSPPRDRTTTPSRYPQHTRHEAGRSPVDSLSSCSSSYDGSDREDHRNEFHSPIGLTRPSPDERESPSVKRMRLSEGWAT
UniProt Q96AQ8: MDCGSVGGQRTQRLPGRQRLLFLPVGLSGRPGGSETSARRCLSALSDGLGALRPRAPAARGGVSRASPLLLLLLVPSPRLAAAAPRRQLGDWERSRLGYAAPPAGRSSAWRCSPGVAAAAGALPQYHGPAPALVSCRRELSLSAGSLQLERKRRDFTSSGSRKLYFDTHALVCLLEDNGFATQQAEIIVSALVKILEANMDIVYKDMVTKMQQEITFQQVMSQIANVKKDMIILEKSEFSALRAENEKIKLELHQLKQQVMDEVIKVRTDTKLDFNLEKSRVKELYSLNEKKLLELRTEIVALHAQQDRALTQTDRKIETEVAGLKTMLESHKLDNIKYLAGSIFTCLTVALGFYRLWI
UniProt P50579: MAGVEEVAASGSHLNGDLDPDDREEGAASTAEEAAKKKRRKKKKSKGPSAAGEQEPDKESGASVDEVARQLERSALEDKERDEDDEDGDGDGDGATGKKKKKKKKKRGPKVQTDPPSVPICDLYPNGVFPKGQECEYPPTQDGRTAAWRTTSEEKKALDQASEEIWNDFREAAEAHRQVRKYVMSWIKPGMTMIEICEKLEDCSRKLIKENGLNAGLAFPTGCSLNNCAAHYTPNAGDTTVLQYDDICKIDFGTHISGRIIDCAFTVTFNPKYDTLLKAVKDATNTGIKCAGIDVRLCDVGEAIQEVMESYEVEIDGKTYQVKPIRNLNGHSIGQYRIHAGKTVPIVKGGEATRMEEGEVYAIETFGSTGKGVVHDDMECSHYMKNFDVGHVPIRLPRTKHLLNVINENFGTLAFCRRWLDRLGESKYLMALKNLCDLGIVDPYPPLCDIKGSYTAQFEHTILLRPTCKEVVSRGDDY
UniProt P33991: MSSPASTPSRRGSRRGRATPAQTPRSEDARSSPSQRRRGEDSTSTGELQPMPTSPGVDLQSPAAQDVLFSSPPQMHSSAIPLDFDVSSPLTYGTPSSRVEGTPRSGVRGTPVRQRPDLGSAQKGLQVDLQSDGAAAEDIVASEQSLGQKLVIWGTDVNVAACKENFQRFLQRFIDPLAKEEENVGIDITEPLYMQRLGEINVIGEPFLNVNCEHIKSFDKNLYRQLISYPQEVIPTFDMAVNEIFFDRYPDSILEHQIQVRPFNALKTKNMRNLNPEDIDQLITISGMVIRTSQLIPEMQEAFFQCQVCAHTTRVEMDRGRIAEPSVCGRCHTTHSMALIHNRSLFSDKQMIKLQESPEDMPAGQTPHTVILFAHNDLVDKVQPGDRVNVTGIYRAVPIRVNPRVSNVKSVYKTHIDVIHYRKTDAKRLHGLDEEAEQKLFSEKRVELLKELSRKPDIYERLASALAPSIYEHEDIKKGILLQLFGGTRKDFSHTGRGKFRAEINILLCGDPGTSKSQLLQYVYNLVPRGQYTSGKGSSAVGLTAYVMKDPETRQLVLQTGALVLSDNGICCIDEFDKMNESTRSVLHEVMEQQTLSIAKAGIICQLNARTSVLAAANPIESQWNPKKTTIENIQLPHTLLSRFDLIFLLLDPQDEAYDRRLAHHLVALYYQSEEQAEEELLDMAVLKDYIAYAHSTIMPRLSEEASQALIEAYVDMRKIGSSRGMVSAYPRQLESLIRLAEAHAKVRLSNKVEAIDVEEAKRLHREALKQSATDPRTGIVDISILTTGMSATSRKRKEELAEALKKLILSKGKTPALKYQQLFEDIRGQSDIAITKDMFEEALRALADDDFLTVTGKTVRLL
UniProt Q16626: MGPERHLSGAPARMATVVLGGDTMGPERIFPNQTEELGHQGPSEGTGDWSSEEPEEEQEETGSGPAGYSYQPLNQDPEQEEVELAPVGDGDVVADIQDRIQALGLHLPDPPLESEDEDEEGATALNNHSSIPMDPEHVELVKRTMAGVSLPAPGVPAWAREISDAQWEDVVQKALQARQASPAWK
UniProt Q96HR3: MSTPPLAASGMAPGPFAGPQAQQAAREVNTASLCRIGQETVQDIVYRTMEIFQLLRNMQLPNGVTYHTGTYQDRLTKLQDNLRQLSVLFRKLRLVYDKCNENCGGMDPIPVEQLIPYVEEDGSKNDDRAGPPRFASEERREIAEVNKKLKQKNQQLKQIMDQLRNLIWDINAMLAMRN
UniProt Q86U44, whole entry, looked up: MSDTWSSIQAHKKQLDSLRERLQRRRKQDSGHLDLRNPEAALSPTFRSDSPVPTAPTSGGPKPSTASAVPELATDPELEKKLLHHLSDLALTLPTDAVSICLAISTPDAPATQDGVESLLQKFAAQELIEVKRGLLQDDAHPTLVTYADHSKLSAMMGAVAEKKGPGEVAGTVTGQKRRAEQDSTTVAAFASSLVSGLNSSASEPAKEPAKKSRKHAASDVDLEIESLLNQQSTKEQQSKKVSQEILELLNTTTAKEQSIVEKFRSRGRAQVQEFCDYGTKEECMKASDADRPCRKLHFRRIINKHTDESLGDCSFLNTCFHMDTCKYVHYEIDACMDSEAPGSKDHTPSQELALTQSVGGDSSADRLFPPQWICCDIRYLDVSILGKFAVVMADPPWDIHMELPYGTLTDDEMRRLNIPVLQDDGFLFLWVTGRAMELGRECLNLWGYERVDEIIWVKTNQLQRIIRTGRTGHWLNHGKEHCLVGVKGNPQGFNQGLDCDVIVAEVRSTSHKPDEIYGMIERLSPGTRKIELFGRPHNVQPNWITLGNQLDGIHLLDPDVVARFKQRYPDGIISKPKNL
UniProt Q14696: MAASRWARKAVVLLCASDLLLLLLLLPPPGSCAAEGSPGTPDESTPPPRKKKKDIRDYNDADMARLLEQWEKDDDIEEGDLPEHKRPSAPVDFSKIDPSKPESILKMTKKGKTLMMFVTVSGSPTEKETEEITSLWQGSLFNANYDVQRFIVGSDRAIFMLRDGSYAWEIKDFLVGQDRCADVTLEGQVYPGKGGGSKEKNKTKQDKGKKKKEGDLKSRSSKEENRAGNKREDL

The list shows a part of the results.

Compound in the first experiment: Cc1cc(Nc2cc(CN3CCOCC3)c3nc(C)c(Cc4ccc(Cl)cc4F)n3n2)n[nH]1 [gandotinib]
In words: log2 fold change, soluble protein after heating vs DMSO (PISA); higher = thermal stabilisation; K562 lysate, 10 uM; active = over 0.2 and 3.5 SD of the protein, either way, in both replicates (recomputed). A digest of the protocol: (§1)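 To prepare the extract, K562 pellets were dounce-homogenised in PBS pH 7.4 with 1 mM MgCl2, giving crude material at 1 mg/mL protein. This was treated with 10 μM compound for 30 min, then heated in aliquots for 3 min over 48°C-58°C before pooling and addition of NP-40 to 0.5% at 4°C. Centrifugation at 21,000xg for 90 min left soluble protein in the supernatant, which TMTpro 16plex LC-MS/MS quantified with equalised channel sums. Results are log-two fold changes in thermal stability compared with solvent controls, from duplicates.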
As to MCMBP (UniProt Q9BTE3), the log2 fold change is inactive: -0.083.

Consider MED20 (UniProt Q9H944), for which the log2 fold change was inactive: 0.136.

As to METTL5 (UniProt Q9NRN9), the log2 fold change was inactive: 0.021.

On to MDH2 (UniProt P40926), for which the log2 fold change was inactive: -0.01.

Take METTL14 (UniProt Q9HCE5): the log2 fold change is inactive: -0.014.

In the case of MECR (UniProt Q9BV79), the log2 fold change was inactive: 0.045.

On to METAP1D (UniProt Q6UB28), for which the log2 fold change is inactive: -0.006.

As for MEF2A (UniProt Q02078), the log2 fold change was inactive: 0.096.

Turning to MFSD10 (UniProt Q14728), the log2 fold change is inactive: 0.158.

As for MCL1 (UniProt Q07820), the log2 fold change was inactive: 0.001.

As for MCM6 (UniProt Q14566), the log2 fold change is inactive: -0.056.

Take MED7 (UniProt O43513): the log2 fold change is inactive: 0.038.

Turning to MFSD4B (UniProt Q5TF39), the log2 fold change is inactive: 0.109.

As to ME2 (UniProt P23368), the log2 fold change is inactive: 0.031.

On to METTL2A (UniProt Q96IZ6), for which the log2 fold change is inactive: -0.065.

With MFN2 (UniProt O95140), the log2 fold change is inactive: -0.041.

As for MED8 isoform 2 (UniProt Q96G25), the log2 fold change was inactive: -0.026.

Take MED4 (UniProt Q9NPJ6): the log2 fold change is inactive: 0.066.

In the case of METTL16 (UniProt Q86W50), the log2 fold change was inactive: -0.05.

For MEF2C isoform 5 (UniProt Q06413), the log2 fold change is inactive: 0.086.

Turning to MCUR1 (UniProt Q96AQ8), the log2 fold change was inactive: 0.006.

On to METAP2 (UniProt P50579), for which the log2 fold change is inactive: 0.021.

Turning to MBD3 (UniProt O95983), the log2 fold change was inactive: 0.051.

In the case of MBD2 (UniProt Q9UBB5), the log2 fold change is inactive: -0.004.

On to MED15 (UniProt Q96RN5), for which the log2 fold change was inactive: -0.005.

In the case of MCFD2 (UniProt Q8NI22), the log2 fold change was inactive: -0.126.

For the target MCM2 (UniProt P49736), the log2 fold change is inactive: -0.047.

MEAF6 isoform 3 (UniProt Q9HAF1): the log2 fold change is inactive: 0.09.

With ME3 (UniProt Q16798), the log2 fold change was inactive: 0.084.

Consider MECP2 isoform 2 (UniProt P51608), for which the log2 fold change is inactive: 0.026.

Take MBOAT2 (UniProt Q6ZWT7): the log2 fold change was active: 0.319.

For the target MCM4 (UniProt P33991), the log2 fold change is inactive: -0.084.

MEA1 (UniProt Q16626): the log2 fold change is inactive: -0.018.

MFAP1 (UniProt P55081): the log2 fold change is inactive: 0.017.

On to MED30 (UniProt Q96HR3), for which the log2 fold change is inactive: 0.033.

For METTL3 (UniProt Q86U44), the log2 fold change was inactive: 0.017.

As for MCRIP1 (UniProt I3L4Q0), the log2 fold change was inactive: 0.021.

Turning to MCRIP2 (UniProt Q9BUT9), the log2 fold change was inactive: -0.034.

As to MEF2D (UniProt Q14814), the log2 fold change is inactive: 0.055.

As for MESD (UniProt Q14696), the log2 fold change is inactive: 0.073.

Compound in another experiment: Cc1cc(Nc2cc(N3CCN(C)CC3)nc(Sc3ccc(NC(=O)C4CC4)cc3)n2)n[nH]1 [tozasertib]
The description is as above. The method, boiled down: as §1
Take MCMBP (UniProt Q9BTE3): the log2 fold change was inactive: -0.007.

Take MED20 (UniProt Q9H944): the log2 fold change was inactive: 0.078.

Turning to METTL5 (UniProt Q9NRN9), the log2 fold change was inactive: -0.014.

MDH2 (UniProt P40926): the log2 fold change is inactive: -0.003.

For the target METTL14 (UniProt Q9HCE5), the log2 fold change is inactive: 0.023.

As for MECR (UniProt Q9BV79), the log2 fold change is inactive: 0.007.

As to METAP1D (UniProt Q6UB28), the log2 fold change is inactive: -0.035.

As for MEF2A (UniProt Q02078), the log2 fold change is inactive: -0.039.

With MFSD10 (UniProt Q14728), the log2 fold change was inactive: -0.062.

As to MCL1 (UniProt Q07820), the log2 fold change was inactive: 0.024.

As for MCM6 (UniProt Q14566), the log2 fold change is inactive: 0.015.

For MED7 (UniProt O43513), the log2 fold change was inactive: -0.17.

Consider MFSD4B (UniProt Q5TF39), for which the log2 fold change is inactive: 0.241.

For ME2 (UniProt P23368), the log2 fold change is inactive: -0.005.

METTL2A (UniProt Q96IZ6): the log2 fold change was inactive: 0.029.

As to MFN2 (UniProt O95140), the log2 fold change was inactive: -0.01.

Regarding MED8 isoform 2 (UniProt Q96G25), the log2 fold change was inactive: 0.047.

Turning to MED4 (UniProt Q9NPJ6), the log2 fold change is inactive: 0.024.

On to METTL16 (UniProt Q86W50), for which the log2 fold change is inactive: -0.032.

Turning to MEF2C isoform 5 (UniProt Q06413), the log2 fold change is inactive: 0.077.

On to MCUR1 (UniProt Q96AQ8), for which the log2 fold change is inactive: 0.045.

For METAP2 (UniProt P50579), the log2 fold change is inactive: -0.014.

As to MBD3 (UniProt O95983), the log2 fold change is inactive: 0.018.

In the case of MBD2 (UniProt Q9UBB5), the log2 fold change was inactive: 0.029.

Turning to MED15 (UniProt Q96RN5), the log2 fold change was inactive: -0.003.

For the target MCFD2 (UniProt Q8NI22), the log2 fold change is inactive: -0.019.

On to MCM2 (UniProt P49736), for which the log2 fold change is inactive: -0.002.

Turning to MEAF6 isoform 3 (UniProt Q9HAF1), the log2 fold change is inactive: -0.049.

In the case of ME3 (UniProt Q16798), the log2 fold change was inactive: 0.043.

Regarding MECP2 isoform 2 (UniProt P51608), the log2 fold change is inactive: -0.003.

On to MBOAT2 (UniProt Q6ZWT7), for which the log2 fold change was inactive: 0.106.

On to MCM4 (UniProt P33991), for which the log2 fold change is inactive: -0.008.

MEA1 (UniProt Q16626): the log2 fold change is inactive: 0.046.

MFAP1 (UniProt P55081): the log2 fold change is inactive: -0.031.

Regarding MED30 (UniProt Q96HR3), the log2 fold change was inactive: 0.066.

For the target METTL3 (UniProt Q86U44), the log2 fold change was inactive: 0.032.

With MCRIP1 (UniProt I3L4Q0), the log2 fold change is inactive: 0.027.

Consider MCRIP2 (UniProt Q9BUT9), for which the log2 fold change was inactive: 0.089.

MEF2D (UniProt Q14814): the log2 fold change is inactive: -0.016.

As for MESD (UniProt Q14696), the log2 fold change is inactive: 0.022.
